Whole data set: some 33,000 sequences, median “E-score (-0.5 to 0.5)” near -0.0014, cut for the highest 2% near 0.25. The list shows a part of the results.

Consider 109 sequences from the supplement of paper PMC3334620.

For the assay, the target named is T1, Cad1 (UniProt P24813).
T1 sequence: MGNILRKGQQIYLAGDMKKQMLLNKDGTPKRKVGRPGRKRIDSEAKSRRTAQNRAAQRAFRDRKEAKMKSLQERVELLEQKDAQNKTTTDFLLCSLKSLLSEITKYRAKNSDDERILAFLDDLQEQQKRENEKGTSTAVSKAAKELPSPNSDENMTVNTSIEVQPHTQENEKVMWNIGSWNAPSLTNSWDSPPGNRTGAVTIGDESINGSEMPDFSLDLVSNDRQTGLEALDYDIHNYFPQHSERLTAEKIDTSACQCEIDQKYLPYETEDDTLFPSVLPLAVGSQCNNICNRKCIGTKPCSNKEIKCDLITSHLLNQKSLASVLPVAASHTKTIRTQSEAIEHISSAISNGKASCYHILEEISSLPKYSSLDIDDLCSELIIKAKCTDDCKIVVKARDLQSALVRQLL
The experiment in a line: PBM E-score (8-mer binding enrichment) (E-score (-0.5 to 0.5)); higher = stronger / more preferred TF binding. The note with it: protein concentration: 100 nM; construct: GST-full length. A digest of the protocol: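 For each ungapped eight-base word taken together with its reverse complement, the Universal PBM Analysis Suite assigned an E-score. Binding data came from GST-tagged yeast transcription factors, applied at about 100-200 nM, on universal all-10-mer Agilent arrays made double-stranded by primer extension. Fluorescent anti-GST marked bound protein, and scans were normalised with masliner.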
In the case of CTTCAGGC, the “PBM E-score” value is -0.219.
In the case of CCCAGGCC it was -0.0863; in that of AGCTCGAC, 0.149; in that of ATTACCTA, 0.222.
With AGTTATAG, the “PBM E-score” value was -0.0744.
As for ATCTTCCA, the “PBM E-score” value was -0.21.
In the case of CGGTTGTC it was 0.0623.
In the case of GCGACTAA, the “PBM E-score” value turned out to be 0.0968.
As for ATATCTAC, the “PBM E-score” value is 0.135.
In the case of GCCTGTAA it was -0.0658; in that of CTTGGCCA, 0.0716.
Consider ACGTTTGA, for which the “PBM E-score” value was determined as 0.0358.
Turning to CTTGGCAC, the “PBM E-score” value was -0.0775.
Take GCCAGAAC: the “PBM E-score” value was -0.0653.
CGGGTAGC: the “PBM E-score” value is -0.128.
Turning to ATATAGCC, the “PBM E-score” value was found to be 0.162.
Regarding GAAAGAAC, the “PBM E-score” value was 0.0564.
On to ACGGGGAC, for which the “PBM E-score” value is -0.109.
Turning to CGTTGACA, the “PBM E-score” value is 0.0657.
With AGCTTTAC, the “PBM E-score” value is -0.0668.
In the case of AGGAAGAA it was -0.161.
In the case of AGATAACC it was 0.00353; in that of ACTACCAA, -0.102.
On to ACCGCGGA, for which the “PBM E-score” value was 0.207.
With GCCCAGCA, the “PBM E-score” value is -0.0353.
In the case of AGTGAGAG it was -0.0659; in that of CAGAGACG, 0.0945; in that of ATGATAAT, 0.1.
In the case of ATGCTCGA it was 0.0495.
For the sequence CCGTCCCA, the “PBM E-score” value is -0.08.
In the case of CACAAGTC, the “PBM E-score” value is -0.206.
On to GGCCTGGA, for which the “PBM E-score” value is -0.276.
Consider AAACATGA, for which the “PBM E-score” value was found to be 0.0892.
For the sequence TCTCTTAA, the “PBM E-score” value is 0.148.
On to ACCGGTAG, for which the “PBM E-score” value was -0.176.
Regarding ACGGATAC, the “PBM E-score” value was 0.219.
Turning to CTTTGACA, the “PBM E-score” value turned out to be 0.0888.
As for CACCAGCC, the “PBM E-score” value is -0.066.
As for CTTCGCAA, the “PBM E-score” value is -0.0125.
Regarding GGGCCATA, the “PBM E-score” value was -0.0783.
In the case of TATAGCGA, the “PBM E-score” value was 0.0154.
GCTCATAA: the “PBM E-score” value came out at 0.0567.
In the case of ATCAGGTC it was -0.113; in that of AATAATCG, 0.147.
For the sequence AGTGTCCC, the “PBM E-score” value is -0.0507.
In the case of GATGGGTA, the “PBM E-score” value stood at 0.0269.
Regarding AAAGTGGC, the “PBM E-score” value was -0.081.
For the sequence CGCTCCGA, the “PBM E-score” value stood at 0.142.
With ACGCTTCC, the “PBM E-score” value was determined as 0.0863.
Take ACAATGGA: the “PBM E-score” value worked out at 0.182.
Regarding CGACTGAA, the “PBM E-score” value is -0.0303.
CTGTACTC: the “PBM E-score” value is -0.0985.
In the case of ACCCCCCA it was -0.422; in that of AATCCGAC, 0.00376; in that of CGTACTAA, 0.0895.
On to AGTGGGCG, for which the “PBM E-score” value was determined as 0.0121.
Turning to GAAAGATA, the “PBM E-score” value amounted to 0.195.
Consider GGTGGCCA, for which the “PBM E-score” value is -0.0726.
Consider TCTATACA, for which the “PBM E-score” value is -0.0994.
Turning to CAAGCGTG, the “PBM E-score” value stood at 0.0147.
Regarding GACTAAAC, the “PBM E-score” value is -0.0687.
With ATCAGATA, the “PBM E-score” value stood at 0.0774.
For CGGATAGA, the “PBM E-score” value stood at 0.192.
Take CCCACAGA: the “PBM E-score” value was -0.143.
On to GTGGTGGA, for which the “PBM E-score” value is -0.17.
In the case of AGACTAGG, the “PBM E-score” value is -0.187.
In the case of ATCTTAGG it was -0.238.
As to AACCTCGT, the “PBM E-score” value is -0.0552.
Consider GGTACCTA, for which the “PBM E-score” value turned out to be 0.0442.
Consider CGATTAGA, for which the “PBM E-score” value was 0.0495.
As to GCCATTCC, the “PBM E-score” value was -0.268.
On to ATTCTGTG, for which the “PBM E-score” value was determined as 0.204.
With GGCTTCTA, the “PBM E-score” value is -0.026.
In the case of ACACCACC it was -0.171; in that of CCTTCATC, -0.157.
Take GGTATAAA: the “PBM E-score” value is -0.0675.
In the case of GAATGCTA it was -0.063.
As to GACCGCTA, the “PBM E-score” value is -0.0151.
In the case of TAACATAA, the “PBM E-score” value was determined as 0.287.
Regarding ACTACTTC, the “PBM E-score” value was -0.0576.
With CAGTCTAC, the “PBM E-score” value is -0.194.
Take CGGCAACC: the “PBM E-score” value worked out at 0.0827.
Turning to AGGGAAAT, the “PBM E-score” value stood at 0.0436.
For the sequence AGGCGCAG, the “PBM E-score” value was -0.273.
Turning to CGCTATGC, the “PBM E-score” value worked out at 0.00289.
In the case of GATATATA it was 0.333; in that of TGCTCTAA, -0.0091.
In the case of CAAAACCG it was 0.0302.
In the case of GATCGAGA it was 0.0272; in that of CGACACAC, 0.177.
Take ATGCAGCC: the “PBM E-score” value stood at 0.162.
In the case of AGACAGAG it was -0.169; in that of CGGAATGA, 0.124.
In the case of AAGCGAGG it was -0.0687; in that of ATACGGTC, -0.0195; in that of ATTGCGCA, 0.103.
For the sequence ATTGGTTC, the “PBM E-score” value is 0.2.
In the case of CGAAGCTC, the “PBM E-score” value is -0.231.
In the case of TACCACGA, the “PBM E-score” value was -0.00517.
Regarding GGACTCGA, the “PBM E-score” value was -0.177.
Regarding CTAACCGA, the “PBM E-score” value stood at 0.00683.
With CTCTCTGA, the “PBM E-score” value was -0.0154.
For CATTGTTA, the “PBM E-score” value turned out to be 0.0137.
Turning to ATCTTGTC, the “PBM E-score” value was -0.00385.
In the case of CCTTCGCG it was -0.0493; in that of CGCATGGA, -0.0928; in that of CATTATGG, -0.0774.
For the sequence GGAACCCA, the “PBM E-score” value was -0.0053.
In the case of CATTCCAG it was -0.144.
